In PubChem BioAssay (EPA / NIEHS):
For some of these results: Most of the hits are listed elsewhere, so they are rarer here than in the full data. Results filed as inconclusive are left out. Only a part is listed here, and it is no random draw. The source made the active and inactive calls. How the source made its calls, unless noted: active means hit-call score of the fitted dose curve at least 0.9, where 1 is the maximum; inactive means score below 0.9.

Protein sequences, listed by entry. Tags and fused reporters are not part of them. Lines headed by an entry give the natural chain unless they say otherwise; changes in a name come on top.
UniProt P06401: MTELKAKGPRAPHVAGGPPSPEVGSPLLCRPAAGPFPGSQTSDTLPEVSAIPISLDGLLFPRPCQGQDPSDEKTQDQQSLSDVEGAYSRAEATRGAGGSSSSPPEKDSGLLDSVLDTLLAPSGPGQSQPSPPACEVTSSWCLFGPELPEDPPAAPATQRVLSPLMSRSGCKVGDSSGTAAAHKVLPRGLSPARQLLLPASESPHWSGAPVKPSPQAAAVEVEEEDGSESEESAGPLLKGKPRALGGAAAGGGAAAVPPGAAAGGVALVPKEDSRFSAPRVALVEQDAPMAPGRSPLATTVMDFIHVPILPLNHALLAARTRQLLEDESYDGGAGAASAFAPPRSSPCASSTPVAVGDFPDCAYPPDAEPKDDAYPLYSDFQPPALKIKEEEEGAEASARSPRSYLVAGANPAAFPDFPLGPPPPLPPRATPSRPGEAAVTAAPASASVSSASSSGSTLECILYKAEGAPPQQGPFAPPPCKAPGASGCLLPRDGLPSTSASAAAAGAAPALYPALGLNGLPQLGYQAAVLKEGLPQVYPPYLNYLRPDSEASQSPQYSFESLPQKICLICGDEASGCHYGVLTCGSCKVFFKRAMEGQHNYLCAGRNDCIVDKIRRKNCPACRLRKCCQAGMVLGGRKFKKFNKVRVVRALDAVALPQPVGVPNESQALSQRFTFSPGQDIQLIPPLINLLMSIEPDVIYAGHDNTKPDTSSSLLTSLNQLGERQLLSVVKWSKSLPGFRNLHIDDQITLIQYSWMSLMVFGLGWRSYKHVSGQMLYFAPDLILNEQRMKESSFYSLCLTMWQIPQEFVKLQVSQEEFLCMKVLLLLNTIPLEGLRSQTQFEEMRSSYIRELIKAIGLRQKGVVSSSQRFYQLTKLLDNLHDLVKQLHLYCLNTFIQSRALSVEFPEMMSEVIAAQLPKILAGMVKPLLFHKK
UniProt P40763, whole entry, looked up: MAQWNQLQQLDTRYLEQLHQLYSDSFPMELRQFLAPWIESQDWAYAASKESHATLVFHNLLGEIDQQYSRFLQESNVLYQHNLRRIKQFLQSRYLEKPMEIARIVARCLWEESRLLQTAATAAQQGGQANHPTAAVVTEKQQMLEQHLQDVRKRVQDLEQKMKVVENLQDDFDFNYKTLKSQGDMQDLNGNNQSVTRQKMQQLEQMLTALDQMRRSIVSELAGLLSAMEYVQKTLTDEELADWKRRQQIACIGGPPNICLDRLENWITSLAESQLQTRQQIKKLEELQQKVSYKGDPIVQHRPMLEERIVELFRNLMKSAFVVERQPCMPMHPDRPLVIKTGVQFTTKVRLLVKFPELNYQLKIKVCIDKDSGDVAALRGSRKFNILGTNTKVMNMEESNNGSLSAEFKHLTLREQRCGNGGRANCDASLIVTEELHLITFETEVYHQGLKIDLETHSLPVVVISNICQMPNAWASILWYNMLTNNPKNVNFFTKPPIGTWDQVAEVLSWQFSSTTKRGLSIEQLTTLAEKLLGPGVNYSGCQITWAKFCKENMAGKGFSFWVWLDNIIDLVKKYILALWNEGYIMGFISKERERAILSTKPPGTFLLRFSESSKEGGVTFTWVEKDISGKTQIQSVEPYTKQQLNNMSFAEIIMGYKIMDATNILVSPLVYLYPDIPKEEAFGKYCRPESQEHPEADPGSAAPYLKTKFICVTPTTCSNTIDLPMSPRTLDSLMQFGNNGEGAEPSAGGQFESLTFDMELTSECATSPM
UniProt P10275: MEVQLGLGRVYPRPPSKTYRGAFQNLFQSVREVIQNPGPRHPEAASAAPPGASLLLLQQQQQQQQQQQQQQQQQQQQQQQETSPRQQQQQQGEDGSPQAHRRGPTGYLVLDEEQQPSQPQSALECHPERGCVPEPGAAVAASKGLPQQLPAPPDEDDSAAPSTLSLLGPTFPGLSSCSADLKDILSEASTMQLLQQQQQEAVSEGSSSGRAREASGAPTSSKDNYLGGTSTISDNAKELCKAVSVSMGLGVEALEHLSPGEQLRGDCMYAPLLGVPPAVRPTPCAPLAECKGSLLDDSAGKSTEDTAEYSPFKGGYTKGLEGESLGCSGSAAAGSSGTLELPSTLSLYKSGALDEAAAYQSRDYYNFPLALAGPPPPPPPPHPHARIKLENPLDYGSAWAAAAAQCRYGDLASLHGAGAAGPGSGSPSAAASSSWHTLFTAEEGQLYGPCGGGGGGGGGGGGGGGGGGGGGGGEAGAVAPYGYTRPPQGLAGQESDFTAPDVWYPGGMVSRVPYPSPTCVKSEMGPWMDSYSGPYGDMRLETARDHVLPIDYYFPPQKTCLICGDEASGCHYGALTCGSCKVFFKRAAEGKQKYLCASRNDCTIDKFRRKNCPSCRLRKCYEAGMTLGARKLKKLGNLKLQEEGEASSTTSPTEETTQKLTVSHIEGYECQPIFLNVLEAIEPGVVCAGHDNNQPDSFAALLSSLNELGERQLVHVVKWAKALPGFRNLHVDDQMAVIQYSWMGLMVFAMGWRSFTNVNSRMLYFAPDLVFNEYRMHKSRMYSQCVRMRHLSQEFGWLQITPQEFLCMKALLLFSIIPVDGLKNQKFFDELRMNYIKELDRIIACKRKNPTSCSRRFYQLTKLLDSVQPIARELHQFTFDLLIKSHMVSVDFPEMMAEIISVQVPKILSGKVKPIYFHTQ

What was measured:
CD40, CD40 (gene 958) = test: BSK_SAg_CD40: BioMAP Diversity Plus: SAg Assay for CD40 Biomarker Activity (AID 2283088); conditions: actives raise or lower the signal; primary human HUVEC with PBMC
Procedure, shortened: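 Fluorescence ELISA read-out of CD40 from umbilical vein endothelium plus peripheral blood mononuclear cells, sampled 24 h after dosing. Values come from bidirectional curve fitting with DMSO as baseline.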

PGR (gene 5241) = PGR (gene 5241) (UniProt P06401); test: NVS_NR_hPR: NovaScreen (NVS) Nuclear Receptor Binding Assay for human Progestron Receptor (PR) (AID 2283360; active means hit-call score of the fitted dose curve at least 0.9, where 1 is the maximum;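 further: active means loss of bound radioligand signal versus DMSO baseline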)
Procedure, shortened: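 T47D lysate; tritiated or iodinated radioligand; scintillation count at 18 h. DMSO = negative control/baseline. Primary: 25 uM, duplicate. Secondary: concentration series for actives.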

[1] = read-out: Cyclin D2 (CCND2), CCND2 (gene 894); test: LTEA_HepaRG_CCND2: Life Technologies and Expression Analysis (LTEA) Assay for Cyclin D2 (CCND2) using HepaRG (AID 2283449); conditions: actives raise or lower the signal; mRNA level, 48 h;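 further: CCND2 transcript measured by TaqMan qRT-PCR and normalised to three housekeeping genes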
Procedure, shortened: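 In this HepaRG study, an eight-point concentration series (max 100 uM, 0.5% DMSO) is applied for 48 h. CCND2 mRNA change is derived by qRT-PCR normalised to ACTB, GAPDH and POLR2A.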

[2] = read-out: Ezrin (EZR), EZR (gene 7430); test: LTEA_HepaRG_EZR: Life Technologies and Expression Analysis (LTEA) Assay for Ezrin (EZR) using HepaRG (AID 2283491); conditions: actives raise or lower the signal; mRNA level, 48 h
[3] = read-out: Signal transducer and activator of transcription 3 (Homo sapiens) (UniProt P40763); test: LTEA_HepaRG_STAT3: Life Technologies and Expression Analysis (LTEA) Assay for Signal transducer and activator of transcription (STAT3) using HepaRG (AID 2283529); conditions: actives raise or lower the signal; mRNA level, 48 h
Procedure, shortened: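 In this transcriptional endpoint, HepaRG cultures receive test chemicals at up to 100 uM for 48 h, tested in duplicate. STAT3 mRNA is normalized to ACTB, GAPDH and POLR2A.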

[4] = BSK_LPS_SRB: Viability Assessment in the BioMAP Diversity Plus: LPS Assay (AID 2283079); conditions: primary human HUVEC with PBMC;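 further: total protein by sulforhodamine B absorbance as a cytotoxicity measure; measured one day after compound addition; fitted in both directions against DMSO so loss or gain of signal counts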
Procedure, shortened: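 Overt cytotoxicity was gauged by sulforhodamine B total-protein staining in a primary human vascular endothelial and mononuclear cell co-culture 24 h post-dosing. Activity was fitted in both directions relative to DMSO.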

[5] = CEETOX_H295R_CORTISOL: CeeTox H295R High-throughput Steroidogenesis Assay for Cortisol (AID 2283438); conditions: actives raise or lower the signal;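 further: cortisol secreted into medium quantified by LC-MS/MS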
Procedure, shortened: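 Cortisol measured by HPLC-MS/MS after MTBE extraction of medium from H295R cells exposed 48 h to chemical (0.1% DMSO), following 48 h prestimulation with 10 uM forskolin. Viability assessed by MTT in the same wells.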

[6] = read-out: Matrix Metallopeptidase 9 (MMP9), MMP9 (gene 4318); test: BSK_KF3CT_MMP9: BioMAP Diversity Plus: KF3CT Assay for Matrix Metallopeptidase 9 (MMP9) Biomarker Activity (AID 2283074); conditions: actives raise or lower the signal; primary human keratinocytes with fibroblasts
Procedure, shortened: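 Values come from bidirectional fitting relative to DMSO of MMP-9 levels, which were measured by ELISA. Measurements were taken 24 h after chemical dosing of a keratinocyte and foreskin fibroblast co-culture.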

[7] = read-out: Interleukin 6 Receptor (IL6R), IL6R (gene 3570); test: LTEA_HepaRG_IL6R: Life Technologies and Expression Analysis (LTEA) Assay for Interleukin 6 Receptor (IL6R) using HepaRG (AID 2283510); conditions: actives raise or lower the signal; mRNA level, 48 h
Procedure, shortened: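 IL6R transcript level by qRT-PCR after 48 h chemical exposure (8-point, half-log, max 100 uM, 0.5% DMSO vehicle) of HepaRG cells in serum-free induction medium. Normalized to three housekeeping genes; curves fitted in both directions relative to DMSO.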

[8] = read-out: Interleukin-8 (IL8), CXCL8 (gene 3576); test: BSK_LPS_IL8: BioMAP Diversity Plus: LPS Assay for Interleukin-8 (IL8) Biomarker Activity (AID 2283078); conditions: actives raise or lower the signal; primary human HUVEC with PBMC
Procedure, shortened: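 Endothelial cells and PBMC from human donors are co-cultured, treated with chemicals and LPS, then assayed for IL-8 by ELISA after 24 h. Parallel SRB staining (0.1% SRB after 10% TCA fixation, 560 nm) flags cytotoxicity.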

[9] = read-out: Interleukin-1 alpha (IL1a), IL1A (gene 3552); test: BSK_LPS_IL1a: BioMAP Diversity Plus: LPS Assay for Interleukin-1 alpha (IL1a) Biomarker Activity (AID 2283080); conditions: actives raise or lower the signal; primary human HUVEC with PBMC
Procedure, shortened: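 Measured: IL-1 alpha via ELISA at 24 h in LPS-activated human umbilical vein endothelium–PBMC co-culture. Baseline: DMSO, bidirectional fitting.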

[10] = molecular target: Agonist Androgen Response Element (ARE), AR (gene 367) (UniProt P10275); test: OT_AR_ARELUC_AG_1440: Odyssey Thera (OT) 24-hour CHO-K1 Luciferase Assay for Agonist Androgen Response Element (ARE) (AID 2283379; active means hit-call score of the fitted dose curve at least 0.9, where 1 is the maximum)
Procedure, shortened: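 Luminescence increase above DMSO, read after a 24 h compound treatment of CHO-K1 cells expressing an androgen response element luciferase reporter, gives the single primary endpoint; concentration-response fitting used the positive direction.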

[11] = CCTE_Shafer_MEA_dev_per_network_spike_spike_number_mean: CCTE's Neural Network Formation Assay for Mean Number of Spikes in a Network Spike, Shafer Lab (AID 2284053);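 further: fitted as decrease in spikes per network spike relative to DMSO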
Procedure, shortened: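 Continuous twelve-day exposure of developing rat cortical networks grown over 16 microelectrodes per well; spontaneous firing is captured at four time points, and the per-network-spike spike number is integrated over development by trapezoidal AUC.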

[12] = CCTE_Shafer_MEA_dev_mutual_information_norm: CCTE's Neural Network Formation Assay for Mutual Information Normalization, Shafer Lab (AID 2284091);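 further: mutual information between electrodes summarised as area under curve across four recording days; potency is for a decrease in mutual information relative to DMSO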
Procedure, shortened: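 Exposure of primary rat cortical neurons began at plating and ran to DIV 12, with full media and treatment renewal after DIV 5 and 9 recordings. Mutual information AUC (DIV 5–12) was analysed for loss versus DMSO.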

[13] = IUF_NPC2-5_cell_number_120hr: Cell Number Assessment at 120 hours in the Leibniz Research Institute for Environmental Medicine (IUF) Neural Progenitor Cell Migration and Differentiation Assay (NPC2-5) (AID 2284308);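 further: count of Hoechst-stained nuclei in migration zone around plated human neural progenitor spheres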
Procedure, shortened: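 Cell number is taken as all Hoechst-positive nuclei detected in the area into which cells migrate out of the sphere, scored at 120 h and referenced to DMSO solvent control, which was kept at no more than 0.1%.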

With FC(F)C(F)(F)OCC(Cn1cncn1)c1ccc(Cl)cc1Cl (stereo unspecified) as the compound, how does the AC50 (CD40, CD40 (gene 958)) read?
The AC50 was active: 30 µM.

What about the outcome (PGR (gene 5241)) of the same compound?
Its outcome is “inactive”.

What about the outcome [1] of the same compound?
Its outcome is “inactive”.

And the outcome [2]?
The outcome was “inactive”.

What about the outcome [3] of the same compound?
The outcome was “inactive”.

With CCCCCOC(=O)c1ccccc1C(=O)OCCCCC as the compound, how does the outcome [4] read?
The outcome was “inactive”.

And the outcome [5]?
The outcome was “inactive”.

With Clc1cccc(Cl)c1Cl as the compound, how does the outcome [6] read?
Its outcome is “inactive”.

And the outcome [7]?
The outcome was “inactive”.

Which AC50 [8] does the source give for Clc1ccc(C(c2ccc(Cl)cc2)C(Cl)Cl)cc1 here?
The AC50 was active: 30.2 µM.

What about the AC50 [4] of the same compound?
Its AC50 is active: 29.6 µM.

Which AC50 [9] does the source give for C=C(C)[C@H]1Cc2c(ccc3c2O[C@@H]2COc4cc(OC)c(OC)cc4[C@@H]2C3=O)O1 here?
Its AC50 is active: 15 µM.

And the outcome [10]?
The outcome was “inactive”.

And the AC50 [11]?
Its AC50 is active: 0.015 µM.

What about the AC50 [12] of the same compound?
The AC50 was active: 0.011 µM.

And the AC50 [13]?
The AC50 was active: 0.167 µM.
